PubChem BioAssay AID1224830 – NIAID, 2016
The deposit covers about 18,000 reagents; this is an unselected part. About 2,900 of them (16%) were called active. 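Calls are made per well; low scores hint the gene aids the LPS response, high scores that it dampens it.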 Unmarked entries are inactive. The numbers tell different reagents against one gene apart. Repeated entries: four replicate wells of each siRNA pool.

Screen: 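Host factors that control LPS-induced TNF expression in human macrophages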 (primary screen)
Cells: human THP-1 monocytic leukaemia cells, TNF dual-luciferase reporter clone, PMA-differentiated to macrophage-like cells
Reagents: siRNA pool against human genes, 50 nM
Duration: LPS for 4 h, given about 3 days after siRNA transfection
Conditions: bacterial LPS (TLR4 ligand), 10 ng/ml
Detection: 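Ratio of firefly to renilla light, scaled to the plate median and expressed as a robust z-score per replicate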
Scale: TNF reporter robust z-score: higher = stronger TNF reporter response to LPS
Call rule: 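Each well counts as active if its z-score is over 2.8 or under -1.5; controls are left without a call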

target	reagent	TNF reporter robust z-score
FHL5	1	-0.29
FHL5	1	0.46
FHL5	1	-0.34
FHL5	1	-1.43
ASTL	1	0.57
ASTL	1	0.69
ASTL	1	0.27
ASTL	1	0.52
SLC1A1	1	1.28
SLC1A1	1	1.8
SLC1A1	1	1.03
SLC1A1	1	1.98
GIMAP7	1	-1.51 (active)
GIMAP7	1	0.45
GIMAP7	1	0.3
GIMAP7	1	0.35
S100A16	1	-0.94
S100A16	1	-0.09
S100A16	1	-0.6
S100A16	1	-0.3
HSP90B1	1	-1.76 (active)
HSP90B1	1	-1.74 (active)
HSP90B1	1	-1.88 (active)
PPP1R14D	1	-0.72
PPP1R14D	1	-0.71
PPP1R14D	1	-1.16
PPP1R14D	1	0.54
RPL35A	1	-0.26
RPL35A	1	-0.66
RPL35A	1	0.03
RPL35A	1	-0.49
UBLCP1	1	-0.68
UBLCP1	1	1.2
UBLCP1	1	0.25
UBLCP1	1	0.81
NBPF1	1	-1.62 (active)
NBPF1	1	-0.98
NBPF1	1	-0.61
NBPF1	1	-1.27
OR13D1	1	0.74
OR13D1	1	0.88
OR13D1	1	1.09
OR13D1	1	1.13
PTPN12	1	-0.74
PTPN12	1	-0.62
PTPN12	1	-0.03
PTPN12	1	-0.51
OR2A42	1	-0.06
OR2A42	1	0.35
OR2A42	1	-0.48
OR2A42	1	-0.64
LRRC39	1	-1.02
LRRC39	1	-0.74
LRRC39	1	-1.08
LRRC39	1	-1.62 (active)
ZNF747	1	-1.26
ZNF747	1	-1.08
ZNF747	1	-1.21
ZNF747	1	-1.2
TMPRSS5	1	1.1
TMPRSS5	1	0.31
TMPRSS5	1	2.19
TMPRSS5	1	0.5
FBXL2	1	-0.5
FBXL2	1	2.68
FBXL2	1	2.15
FBXL2	1	1.69
CRISPLD1	1	-0.45
CRISPLD1	1	-0.55
CRISPLD1	1	-0.11
CRISPLD1	1	-0.02
SARNP	1	-0.94
SARNP	1	-0.19
SARNP	1	-0.49
SARNP	1	0.3
ERRFI1	1	0.63
ERRFI1	1	0.25
ERRFI1	1	-0.88
ERRFI1	1	-0.48
LZIC	1	0.08
LZIC	1	0.75
LZIC	1	-0.79
LZIC	1	1.08
YIPF7	1	-1.45
YIPF7	1	-0.99
YIPF7	1	-0.62
YIPF7	1	-0.66
UBE2J2	1	-1.68 (active)
UBE2J2	1	-1.23
UBE2J2	1	-0.01
UBE2J2	1	-0.87
ZNF573	1	2.83 (active)
ZNF573	1	-0.51
ZNF573	1	-1.35
ZNF573	1	-0.29
HARBI1	1	0.28
HARBI1	1	1.29
HARBI1	1	0.65
HARBI1	1	1.33
CD109	1	0.01
CD109	1	0.41
CD109	1	0.24
CD109	1	0.92
COL1A1	1	-1.19
COL1A1	1	-0.93
COL1A1	1	0.08
COL1A1	1	-0.26
BEX5	1	-0.59
BEX5	1	-0.09
BEX5	1	0.3
BEX5	1	-0.11
ACO2	1	-1.76 (active)
ACO2	1	-1.9 (active)
ACO2	1	-1.65 (active)
SEPTIN4	1	-1.17
SEPTIN4	1	-0.8
SEPTIN4	1	-0.45
SEPTIN4	1	-0.4
SEPTIN4	2	0.28
SEPTIN4	2	1.68
SEPTIN4	2	1.05
SEPTIN4	2	0.74
FRA10AC1	1	-0.36
FRA10AC1	1	-1.03
FRA10AC1	1	-0.48
COA6	1	1.45
COA6	1	1.86
COA6	1	0.84
COA6	1	1.47
LEMD1	1	0.39
LEMD1	1	1.81
LEMD1	1	1.5
LEMD1	1	-0.03
TMEM127	1	0.2
TMEM127	1	1.85
TMEM127	1	0.11
TMEM127	1	0.3
COMT	1	3.27 (active)
COMT	1	3.17 (active)
COMT	1	1.56
COMT	1	0.15
